Laboratory results reported in paper PMC9245043.
No constants are given. Whether binding was seen depends on the method and setting. In cells and extracts the contact can be indirect. A result given as binding can be weak or reduced; the word gives no strength. Tags and fused reporters may be left off the sequences shown.

Protein sequences, listed by entry. Tags and fused reporters are not part of them. Lines headed by an entry give the natural chain unless they say otherwise; changes in a name come on top.
UniProt P39113: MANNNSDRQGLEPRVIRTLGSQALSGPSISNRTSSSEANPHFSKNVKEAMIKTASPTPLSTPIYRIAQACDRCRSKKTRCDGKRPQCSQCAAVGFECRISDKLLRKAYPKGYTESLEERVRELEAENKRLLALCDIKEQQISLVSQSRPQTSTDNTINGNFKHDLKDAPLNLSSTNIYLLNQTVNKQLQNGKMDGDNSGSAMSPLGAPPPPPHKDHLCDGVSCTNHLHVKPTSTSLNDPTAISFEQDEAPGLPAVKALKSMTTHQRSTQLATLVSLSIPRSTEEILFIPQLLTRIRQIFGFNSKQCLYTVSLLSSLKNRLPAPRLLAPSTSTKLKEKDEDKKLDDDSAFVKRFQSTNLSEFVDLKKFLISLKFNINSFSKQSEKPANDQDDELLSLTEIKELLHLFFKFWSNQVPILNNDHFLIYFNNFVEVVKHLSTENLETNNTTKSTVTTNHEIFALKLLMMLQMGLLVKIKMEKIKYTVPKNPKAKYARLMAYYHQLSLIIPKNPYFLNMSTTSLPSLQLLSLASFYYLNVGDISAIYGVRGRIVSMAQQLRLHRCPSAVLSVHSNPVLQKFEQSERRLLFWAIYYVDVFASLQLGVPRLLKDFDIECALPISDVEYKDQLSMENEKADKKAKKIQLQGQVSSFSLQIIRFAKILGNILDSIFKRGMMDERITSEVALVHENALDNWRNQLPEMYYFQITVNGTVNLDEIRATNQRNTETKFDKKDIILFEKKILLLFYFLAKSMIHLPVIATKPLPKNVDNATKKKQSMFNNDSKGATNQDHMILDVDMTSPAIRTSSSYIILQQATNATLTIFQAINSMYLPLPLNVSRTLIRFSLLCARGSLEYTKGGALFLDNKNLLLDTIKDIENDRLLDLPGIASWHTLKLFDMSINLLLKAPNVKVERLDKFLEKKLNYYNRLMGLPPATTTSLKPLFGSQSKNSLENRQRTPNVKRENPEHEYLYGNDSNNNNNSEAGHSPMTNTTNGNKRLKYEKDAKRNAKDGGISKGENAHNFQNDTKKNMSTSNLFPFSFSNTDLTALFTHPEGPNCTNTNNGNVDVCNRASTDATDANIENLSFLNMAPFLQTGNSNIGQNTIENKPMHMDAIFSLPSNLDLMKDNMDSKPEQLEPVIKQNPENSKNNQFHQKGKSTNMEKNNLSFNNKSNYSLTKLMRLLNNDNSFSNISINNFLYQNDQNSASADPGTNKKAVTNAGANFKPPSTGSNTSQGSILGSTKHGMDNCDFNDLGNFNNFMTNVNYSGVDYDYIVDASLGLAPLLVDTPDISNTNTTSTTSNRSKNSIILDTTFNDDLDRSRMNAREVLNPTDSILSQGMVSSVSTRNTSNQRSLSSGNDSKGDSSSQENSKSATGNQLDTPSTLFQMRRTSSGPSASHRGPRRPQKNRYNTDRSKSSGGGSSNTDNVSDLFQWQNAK

B1: Aro80 with Myc tag (plasmid YEpA-ARO80-Myc) (protein, UniProt Q04052 1-950)
chain: MSAKKRPSGNAAFELPKRRRTYQACISCRSRKVKCDLGPVDNPHDPPCARCKRELKKCIFSSNKGTSNDLPPNSINAISLPSLGKSKQEIQNDSTSPILSDVPLSRKGISSEKSFKSEGMKWKLELSSMQNALEFLAQAAGTVAKEGAKEIIKEKSTTPKPLKSSLDATNKSATDEGLKRLSKSDSTNTLYENTADMLNHTLNTNRKTSQLMEEIGKVRPPPTRKIDDFDYIGPDSLLTKEEAIELIEAFFLTMHPFFPNIPLQLHDPKELAEYPILFCAILTVSARYHPFDTLGLDNGEDGMRHIEVHDKLWVYCQKLISQTIWAEASTRSIGTVLAFIIFTEWNPRSIHYKWSDYANDPELNNVNARGSKNISTRKDEEGLTGVGAIRRSDRMSWMLTGSAVRLAQDMGFIENSSKVFIVTHISETTSAMNMNQRSLLAESFSVLNLNLGKIENDGNESNEDYLGNEKFYLNEILPDEESKLRWKRVFENSENDHDNEKNFLTDWEREFLNDEYVLYYSNKKDDTNLAQNHIPPFPLRFSFAQRAKIEIIRILSIAYETIYCEKNKRKLATTDQRHNLSVLSVFSPLIEGWLSNYRELLVPLSDVPFSLADRKNKKQIFDNIDRINGESIITDFNYCQLYIFSLALQVDGKTSRLNMNEIVTSARYVELAYRSAKEILSSAKRVSRQGMLKYMPVRWVIRIIRSIAFIVKCYLTLTGSELATNPDARNILKLSAISVDETFDIIRDTAVTLKEATPDELHLCQRYAAILMYLCTEMKLRKKSYLERPPLLRDGTTPLESNRESSLEGQDLTKKPIFSKRIGYNKTETTFEPSERPLTEEINSNSQNSNDTSSKGIVDPFVEQNNDITTALLNNELFQGPSLSDEVTDWFGASEDIGLEFVEPWTELIEQRYMQCGDGDNNNFENLYNLFVNSNNINNDINNSRPITRK
B2: Gat1 with Myc tag (plasmid YEpA-GAT1-Myc) (protein, UniProt P43574 1-510)
chain: MHVFFPLLFRPSPVLFIACAYIYIDIYIHCTRCTVVNITMSTNRVPNLDPDLNLNKEIWDLYSSAQKILPDSNRILNLSWRLHNRTSFHRINRIMQHSNSIMDFSASPFASGVNAAGPGNNDLDDTDTDNQQFFLSDMNLNGSSVFENVFDDDDDDDDVETHSIVHSDLLNDMDSASQRASHNASGFPNFLDTSCSSSFDDHFIFTNNLPFLNNNSINNNHSHNSSHNNNSPSIANNTNANTNTNTSASTNTNSPLLRRNPSPSIVKPGSRRNSSVRKKKPALKKIKSSTSVQSSATPPSNTSSNPDIKCSNCTTSTTPLWRKDPKGLPLCNACGLFLKLHGVTRPLSLKTDIIKKRQRSSTKINNNITPPPSSSLNPGAAGKKKNYTASVAASKRKNSLNIVAPLKSQDIPIPKIASPSIPQYLRSNTRHHLSSSVPIEAETFSSFRPDMNMTMNMNLHNASTSSFNNEAFWKPLDSAIDHHSGDTNPNSNMNTTPNGNLSLDWLNLNL
B3: Gln3 with Myc tag (plasmid YEpA-GLN3-Myc) (protein, UniProt P18494 1-730)
chain: MQDDPENSKLYDLLNSHLDVHGRSNEEPRQTGDSRSQSSGNTGENEEDIAFASGLNGGTFDSMLEALPDDLYFTDFVSPFTAAATTSVTTKTVKDTTPATNHMDDDIAMFDSLATTQPIDIAASNQQNGEIAQLWDFNVDQFNMTPSNSSGSATISAPNSFTSDIPQYNHGSLGNSVSKSSLFPYNSSTSNSNINQPSINNNSNTNAQSHHSFNIYKLQNNNSSSSAMNITNNNNSNNSNIQHPFLKKSDSIGLSSSNTTNSVRKNSLIKPMSSTSLANFKRAASVSSSISNMEPSGQNKKPLIQCFNCKTFKTPLWRRSPEGNTLCNACGLFQKLHGTMRPLSLKSDVIKKRISKKRAKQTDPNIAQNTPSAPATASTSVTTTNAKPIRSRKKSLQQNSLSRVIPEEIIRDNIGNTNNILNVNRGGYNFNSVPSPVLMNSQSYNSSNANFNGASNANLNSNNLMRHNSNTVTPNFRRSSRRSSTSSNTSSSSKSSSRSVVPILPKPSPNSANSQQFNMNMNLMNTTNNVSAGNSVASSPRIISSANFNSNSPLQQNLLSNSFQRQGMNIPRRKMSRNASYSSSFMAASLQQLHEQQQVDVNSNTNTNSNRQNWNSSNSVSTNSRSSNFVSQKPNFDIFNTPVDSPSVSRPSSRKSHTSLLSQQLQNSESNSFISNHKFNNRLSSDSTSPIKYEADVSAGGKISEDNSTKGSSKESSAIADELDWLKFGI

What follows are binders tested against Cat8 with a 3 × HA tag at the carboxyl terminus (strain YS58-CAT8-HA) (S. cerevisiae) (UniProt P39113) (assay: co-IP; yeast lysate of strains co-expressing Cat8-HA and a Myc-tagged factor, cells in Phe induction medium with 2% glycerol for 6 h; IP with anti-HA, anti-Myc or IgG (negative control) on magnetic beads at 4°C, IP Lysis/Wash Buffer pH 7.4 (25 mM Tris, 150 mM NaCl, 1 mM EDTA, 1% NP-40, 5% glycerol); immunoblot with HA and Myc antibodies).
With B1 the binding was “binds”.
B2 was tested, and the binding was “binds”.
For B3, the binding was “no binding”.
